Experimental data published in the supplement of paper PMC7661543.
± gives the standard deviation of the averaged measurements. The effect of the compound repeats well; differences between the knockouts mostly do not.

Tested on: MDA-MB-231
Assay: relative cell number vs DMSO control (72 h) (% of DMSO); higher = less growth inhibition (more cells)
Experimental: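 QMAP-Seq: a pool of 5 breast cancer cell lines (ZR-75-1, SKBR3, HCC-38, MDA-MB-231, BT-20), each carrying 12 doxycycline-inducible Cas9 sgRNA perturbations (11 knockouts plus non-targeting sgNT), was treated with compounds for 72 h at four 10-fold doses (10 nM-10 uM or 1 nM-1 uM range). Barcodes were amplified and sequenced, and cell number was interpolated from 293T spike-in standard curves. The result is expressed as % of the median of DMSO wells. Two biological replicates.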

CC(C)(C)c1nc(-c2cccc(NS(=O)(=O)c3c(F)cccc3F)c2F)c(-c2ccnc(N)n2)s1 [Dabrafenib]
Conditions	relative cell number
sgRNA knockout: sgATF3, 10 nM	163 ± 17
sgRNA knockout: sgATF3, 100 nM	102 ± 34
sgRNA knockout: sgATF3, 1000 nM	94 ± 24
sgRNA knockout: sgATF3, 10000 nM	123.2 ± 0.84
sgRNA knockout: sgATF4, 10 nM	152 ± 36
sgRNA knockout: sgATF4, 100 nM	87.9 ± 10
sgRNA knockout: sgATF4, 1000 nM	86.4 ± 27
sgRNA knockout: sgATF4, 10000 nM	109 ± 16
sgRNA knockout: sgATF6, 10 nM	139 ± 21
sgRNA knockout: sgATF6, 100 nM	133 ± 2.6
sgRNA knockout: sgATF6, 1000 nM	110 ± 23
sgRNA knockout: sgATF6, 10000 nM	95.6 ± 9.7
sgRNA knockout: sgATG7, 10 nM	123 ± 36
sgRNA knockout: sgATG7, 100 nM	115 ± 13
sgRNA knockout: sgATG7, 1000 nM	104 ± 17
sgRNA knockout: sgATG7, 10000 nM	104 ± 11
sgRNA knockout: sgERN1, 10 nM	152 ± 17
sgRNA knockout: sgERN1, 100 nM	102 ± 15
sgRNA knockout: sgERN1, 1000 nM	98.9 ± 16
sgRNA knockout: sgERN1, 10000 nM	90.1 ± 17
sgRNA knockout: sgHSF1, 10 nM	127 ± 45
sgRNA knockout: sgHSF1, 100 nM	116 ± 12
sgRNA knockout: sgHSF1, 1000 nM	100 ± 5.1
sgRNA knockout: sgHSF1, 10000 nM	112 ± 2
sgRNA knockout: sgHSF2, 10 nM	125 ± 5.7
sgRNA knockout: sgHSF2, 100 nM	97.3 ± 16
sgRNA knockout: sgHSF2, 1000 nM	112.8 ± 1
sgRNA knockout: sgHSF2, 10000 nM	102 ± 2.2
sgRNA knockout: sgKEAP1, 10 nM	172 ± 19
sgRNA knockout: sgKEAP1, 100 nM	122 ± 4.2
sgRNA knockout: sgKEAP1, 1000 nM	102 ± 10
sgRNA knockout: sgKEAP1, 10000 nM	114 ± 15
sgRNA knockout: sgNFE2L2, 10 nM	132 ± 1.8
sgRNA knockout: sgNFE2L2, 100 nM	117 ± 31
sgRNA knockout: sgNFE2L2, 1000 nM	113 ± 3.7
sgRNA knockout: sgNFE2L2, 10000 nM	87.19 ± 0.59
sgRNA knockout: sgSLC35F2, 10 nM	125 ± 45
sgRNA knockout: sgSLC35F2, 100 nM	101 ± 9.3
sgRNA knockout: sgSLC35F2, 1000 nM	92.6 ± 15
sgRNA knockout: sgSLC35F2, 10000 nM	94.5 ± 20
sgRNA knockout: sgXBP1, 10 nM	140 ± 21
sgRNA knockout: sgXBP1, 100 nM	126 ± 3.1
sgRNA knockout: sgXBP1, 1000 nM	122 ± 17
sgRNA knockout: sgXBP1, 10000 nM	109.66 ± 0.091

COC(=O)/C=C/C(=O)OC [DimethylFumarate]
Conditions	relative cell number
sgRNA knockout: sgATF3, 10 nM	87.6 ± 28
sgRNA knockout: sgATF3, 100 nM	108 ± 2.8
sgRNA knockout: sgATF3, 1000 nM	102 ± 3.5
sgRNA knockout: sgATF3, 10000 nM	104 ± 6.8
sgRNA knockout: sgATF4, 10 nM	99.25 ± 0.38
sgRNA knockout: sgATF4, 100 nM	94.7 ± 14
sgRNA knockout: sgATF4, 1000 nM	109 ± 51
sgRNA knockout: sgATF4, 10000 nM	74.9 ± 8.8
sgRNA knockout: sgATF6, 10 nM	106 ± 36
sgRNA knockout: sgATF6, 100 nM	101 ± 4.9
sgRNA knockout: sgATF6, 1000 nM	112 ± 47
sgRNA knockout: sgATF6, 10000 nM	86.2 ± 7.3
sgRNA knockout: sgATG7, 10 nM	111 ± 6.9
sgRNA knockout: sgATG7, 100 nM	105 ± 31
sgRNA knockout: sgATG7, 1000 nM	89.2 ± 18
sgRNA knockout: sgATG7, 10000 nM	96.9 ± 4.5
sgRNA knockout: sgERN1, 10 nM	94 ± 30
sgRNA knockout: sgERN1, 100 nM	93.3 ± 15
sgRNA knockout: sgERN1, 1000 nM	87.8 ± 1.1
sgRNA knockout: sgERN1, 10000 nM	88.1 ± 15
sgRNA knockout: sgHSF1, 10 nM	79.1 ± 12
sgRNA knockout: sgHSF1, 100 nM	90.3 ± 29
sgRNA knockout: sgHSF1, 1000 nM	102 ± 5.2
sgRNA knockout: sgHSF1, 10000 nM	108 ± 17
sgRNA knockout: sgHSF2, 10 nM	90.5 ± 22
sgRNA knockout: sgHSF2, 100 nM	90.4 ± 29
sgRNA knockout: sgHSF2, 1000 nM	95.9 ± 24
sgRNA knockout: sgHSF2, 10000 nM	72.5 ± 14
sgRNA knockout: sgKEAP1, 10 nM	78.9 ± 14
sgRNA knockout: sgKEAP1, 100 nM	79.5 ± 5.2
sgRNA knockout: sgKEAP1, 1000 nM	87.7 ± 14
sgRNA knockout: sgKEAP1, 10000 nM	96.8 ± 6.9
sgRNA knockout: sgNFE2L2, 10 nM	80.6 ± 27
sgRNA knockout: sgNFE2L2, 100 nM	103 ± 1.5
sgRNA knockout: sgNFE2L2, 1000 nM	84.5 ± 28
sgRNA knockout: sgNFE2L2, 10000 nM	103 ± 16
sgRNA knockout: sgSLC35F2, 10 nM	102 ± 26
sgRNA knockout: sgSLC35F2, 100 nM	91.8 ± 17
sgRNA knockout: sgSLC35F2, 1000 nM	109 ± 39
sgRNA knockout: sgSLC35F2, 10000 nM	94.7 ± 10
sgRNA knockout: sgXBP1, 10 nM	93.1 ± 4.2
sgRNA knockout: sgXBP1, 100 nM	89.91 ± 0.33
sgRNA knockout: sgXBP1, 1000 nM	81.9 ± 11
sgRNA knockout: sgXBP1, 10000 nM	94.9 ± 15

CN1CCN(c2ccc(C(=O)Nc3n[nH]c4ccc(Cc5cc(F)cc(F)c5)cc34)c(NC3CCOCC3)c2)CC1 [Entrectinib]
Conditions	relative cell number
sgRNA knockout: sgATF3, 1 nM	98.2 ± 4.4
sgRNA knockout: sgATF3, 10 nM	102 ± 14
sgRNA knockout: sgATF3, 100 nM	103 ± 14
sgRNA knockout: sgATF3, 1000 nM	79.1 ± 13
sgRNA knockout: sgATF4, 1 nM	76.2 ± 22
sgRNA knockout: sgATF4, 10 nM	131 ± 12
sgRNA knockout: sgATF4, 100 nM	113 ± 9.2
sgRNA knockout: sgATF4, 1000 nM	112 ± 26
sgRNA knockout: sgATF6, 1 nM	109 ± 11
sgRNA knockout: sgATF6, 10 nM	77.5 ± 17
sgRNA knockout: sgATF6, 100 nM	86.2 ± 11
sgRNA knockout: sgATF6, 1000 nM	82.2 ± 25
sgRNA knockout: sgATG7, 1 nM	74.7 ± 7.6
sgRNA knockout: sgATG7, 10 nM	81.4 ± 35
sgRNA knockout: sgATG7, 100 nM	99.5 ± 13
sgRNA knockout: sgATG7, 1000 nM	71.4 ± 12
sgRNA knockout: sgERN1, 1 nM	87.5 ± 4.3
sgRNA knockout: sgERN1, 10 nM	89.1 ± 17
sgRNA knockout: sgERN1, 100 nM	124 ± 59
sgRNA knockout: sgERN1, 1000 nM	81.78 ± 0.4
sgRNA knockout: sgHSF1, 1 nM	101 ± 15
sgRNA knockout: sgHSF1, 10 nM	96.3 ± 6.2
sgRNA knockout: sgHSF1, 100 nM	95.68 ± 0.099
sgRNA knockout: sgHSF1, 1000 nM	80.3 ± 1.3
sgRNA knockout: sgHSF2, 1 nM	115 ± 8.3
sgRNA knockout: sgHSF2, 10 nM	98.6 ± 17
sgRNA knockout: sgHSF2, 100 nM	100 ± 5.7
sgRNA knockout: sgHSF2, 1000 nM	81.3 ± 6.8
sgRNA knockout: sgKEAP1, 1 nM	82.1 ± 4.2
sgRNA knockout: sgKEAP1, 10 nM	83.8 ± 30
sgRNA knockout: sgKEAP1, 100 nM	108 ± 15
sgRNA knockout: sgKEAP1, 1000 nM	63.756 ± 0.0059
sgRNA knockout: sgNFE2L2, 1 nM	98.6 ± 15
sgRNA knockout: sgNFE2L2, 10 nM	85 ± 3.9
sgRNA knockout: sgNFE2L2, 100 nM	102 ± 4.7
sgRNA knockout: sgNFE2L2, 1000 nM	77.9 ± 6.5
sgRNA knockout: sgSLC35F2, 1 nM	101 ± 20
sgRNA knockout: sgSLC35F2, 10 nM	90.3 ± 10
sgRNA knockout: sgSLC35F2, 100 nM	103.4 ± 0.89
sgRNA knockout: sgSLC35F2, 1000 nM	88.6 ± 13
sgRNA knockout: sgXBP1, 1 nM	104 ± 1.5
sgRNA knockout: sgXBP1, 10 nM	94.7 ± 17
sgRNA knockout: sgXBP1, 100 nM	101 ± 31
sgRNA knockout: sgXBP1, 1000 nM	66.6 ± 7.6
